Results as given in PubChem BioAssay AID2685 (National Center for Advancing Translational Sciences (NCATS), 2010).
This is one part of the list. Further columns of the screen follow, without active or inactive calls. Compounds called inactive in the main read-out are mostly missing here. Potencies come from curve fits of mixed quality, noted in brackets.

Assay: qHTS Assay for Lipid Storage Modulators in Drosophila S3 Cells;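 as to cell number change: cells counted by Cell Tracker Red CMTPX staining in the red channel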
Conditions: BODIPY lipid droplet fluorescence, 18-24 h; for cell number change: measured here: cell count max response, cells fed with added oleic acid
How it was run: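 Drosophila S3 cells got compounds at several concentrations plus oleic acid (400 uM solution). Laser-scanning cytometry with 488 nm excitation read lipid droplets at 500-530 nm and cells at 575-640 nm. Percent activity was relative to 20 uM Triacsin C.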

[1] = measured here: cell number channel AC50, cells fed with added oleic acid
[2] = measured here: lipid fluorescence (Fed channel) AC50, cells fed with added oleic acid

SMILES	cell number change [%]	AC50 [1]	AC50 [2]
CN(C)C(CNC(=O)c1cccc(C#N)c1)c1ccco1 (stereo not drawn)	-17.8	0.058 µM [falling, full curve]	–
Cc1ccc(Nc2nc3c(c(=O)[nH]2)CCCC3)cc1	-16.9	–	23.1 µM [falling, single point]
CC(=O)Nc1ccc(N/C=C/C(=O)c2ccc(C)o2)cc1	32	1.03 µM [rising, full curve]	1.16 µM [rising, single point]
COc1ccccc1Nc1ccc([N+](=O)[O-])cc1N	-25.9	–	14.6 µM [falling, partial curve]
CCC(C)(C)NC(=O)C(OC(=O)c1ccco1)c1ccc(OC)cc1 (stereo not drawn)	-7.97	–	–
CC(C)CCNc1c(-c2cccs2)nc2ccccn12	-24.4	–	18.4 µM [falling, single point]
O=C(c1ccco1)N1CCc2[nH]nc(-c3ccccc3)c2C1	-17.3	–	13 µM [falling, partial curve]
O=C(CC1SC(N2CCCC2)=NC1=O)Nc1ccc(C(=O)Nc2ccccc2)cc1 (stereo not drawn)	-19.9	0.517 µM [falling, full curve, poor fit]	0.731 µM [falling, full curve, poor fit]
CCCN(C(=O)c1cccs1)c1c(N)n(Cc2ccccc2)c(=O)[nH]c1=O	-5.26	–	6.51 µM [falling, single point]
C=CCOC(=O)C1=C[C@@H](c2ccccc2)[C@H](CCCO)[C@@H](OCC)O1	3.72	–	4.61 µM [falling, partial curve]
Cc1cc(SCCC(=O)O)nc2ccccc12	1.69	–	2.91 µM [rising, single point]
CCc1nc(SCC(=O)N2CCCC2)c2ccccc2n1	32.5	5.17 µM [rising, partial curve]	–
CCCOc1ccc(N2C(=O)CC(N3CCN(c4ccc([N+](=O)[O-])cc4)CC3)C2=O)cc1 (stereo not drawn)	–	–	4.61 µM [falling, partial curve]
COc1ccc2c(c1OC)C(=O)N1N=C(c3ccc(-c4ccccc4)cc3)CC21 (stereo not drawn)	–	0.103 µM [rising, full curve, poor fit]	6.51 µM [rising, partial curve, poor fit]
COc1ccc(CSC(=N)N)cc1[N+](=O)[O-]	-40.9	29.1 µM [falling, single point]	4.61 µM [falling, partial curve]
CC(=O)n1nc(-c2cccnc2)nc1NCc1cccs1	137	20.6 µM [rising, partial curve]	–
C=CCn1c(C)cc(C(=O)COc2ccc(S(=O)(=O)N3CCCC3)cc2[N+](=O)[O-])c1C	-0.167	–	6.51 µM [rising, single point]
COc1ccc(NC(=O)CSc2nnc3ccc(-c4ccncc4)nn23)cc1OC	–	1.84 µM [falling, partial curve, poor fit]	6.51 µM [falling, single point]
COCCN(C(=O)CNC(=O)c1ccco1)C(C(=O)NC1CCCC1)c1ccccc1 (stereo not drawn)	21.3	–	6.51 µM [rising, single point]

Rewritten field by field: part of the list above.
COc1ccc(CSC(=N)N)cc1[N+](=O)[O-]
  cell number change [%]: -40.9; AC50 [1]: 29.1 µM [falling, single point]; AC50 [2]: 4.61 µM [falling, partial curve]
CC(=O)n1nc(-c2cccnc2)nc1NCc1cccs1
  cell number change [%]: 137; AC50 [1]: 20.6 µM [rising, partial curve]
C=CCn1c(C)cc(C(=O)COc2ccc(S(=O)(=O)N3CCCC3)cc2[N+](=O)[O-])c1C
  cell number change [%]: -0.167; AC50 [2]: 6.51 µM [rising, single point]

Remaining list, next part:

SMILES	cell number change [%]	AC50 [1]	AC50 [2]
NC(=O)c1ccsc1NC(=O)COC(=O)c1c(F)cccc1Cl	-2.8	–	1.16 µM [rising, partial curve, poor fit]
Cc1cccc(CSc2nc3[nH]ncc3c(=O)[nH]2)c1	31.8	–	–
CC(C)(C)C(=O)NC1CCN(S(=O)(=O)c2ccccc2F)CC1	-11.5	–	29.1 µM [falling, single point]
CC(C)Oc1ccc(C(=O)OCC(=O)NC2CCCCCC2)cc1	-9.25	–	–
Cc1c(C(=O)NC2CC(=O)N(c3ccc4c(c3)OCCO4)C2)cccc1[N+](=O)[O-] (stereo not drawn)	–	–	18.4 µM [rising, partial curve]
CN(C)CCCN(C(=O)c1ccco1)c1nc(-c2ccc(Cl)cc2)cs1	4.93	–	18.4 µM [falling, single point]
Fc1ccc(-c2cnn3c(-c4ccncc4)ccnc23)cc1	34.1	0.184 µM [rising, full curve, poor fit]	32.6 µM [rising, single point]
CCC(C(=O)NCCCc1ccccc1)c1ccccc1 (stereo not drawn)	1.06	0.082 µM [falling, full curve]	0.164 µM [falling, full curve, poor fit]
O=[N+]([O-])c1ccc(Sc2nnnn2-c2ccccc2)c(Cl)c1	–	–	0.326 µM [falling, full curve, poor fit]
O=C(NCC1CCCO1)C(=O)N/N=C/c1cc(Cl)ccc1O (stereo not drawn)	–	–	0.13 µM [falling, full curve, poor fit]
CCOC(=O)C(NCc1ccccc1OC)(NC(=O)c1ccccc1)C(F)(F)F (stereo not drawn)	-19.4	–	0.103 µM [falling, full curve, poor fit]
O=C(Nc1ccc(-n2cnnn2)cc1)C1CCCN1C(=O)NC1CCCCC1 (stereo not drawn)	-7.11	–	–
CC1CCCCN1CCCNC(=O)C1CCN(c2nc3ccccc3o2)CC1 (stereo not drawn)	-47.8	14.6 µM [falling, partial curve, poor fit]	13 µM [falling, partial curve]
CC(NCCOc1ccccc1F)C(=O)Nc1ccc(S(N)(=O)=O)cc1 (stereo not drawn)	27.8	–	0.231 µM [falling, full curve, poor fit]
Clc1ccc(-c2[nH]ncc2N=Nc2ccccc2)cc1	-57.8	18.4 µM [falling, single point]	29.1 µM [falling, single point]
COc1cc(/C=N/Nc2ncc(C(F)(F)F)cc2Cl)cc(OC)c1O	18	–	11.6 µM [rising, partial curve]
CC(=O)N1CCN(c2ccc(NC(=O)c3ccc([N+](=O)[O-])o3)cc2Cl)CC1	8.26	–	2.91 µM [falling, single point]
COCCn1nnnc1C(c1ccccc1)N1CCN(C(=O)c2ccco2)CC1 (stereo not drawn)	-28.2	–	–
Cc1occc1-c1nnc(SCc2cc(=O)n3cc(Br)ccc3n2)n1C	0.593	–	0.259 µM [rising, partial curve, poor fit]

SMILES	cell number change [%]	AC50 [1]	AC50 [2]
CC[C@@]12C(=O)N(c3cccc(F)c3)C(=O)N1[C@H](c1ccc(Br)cc1)[C@@H]1C(=O)N(C(C)(C)C)C(=O)[C@@H]12	-9.97	1.16 µM [falling, partial curve]	–
CC(C)c1ccc(C2CC(=O)N3CN(C)CSC3=C2C#N)cc1 (stereo not drawn)	2.1	–	5.17 µM [rising, full curve]
COc1ccc(C(=O)CCC(=O)O)c(C)c1	-70.6	4.11 µM [falling, full curve]	29.1 µM [falling, single point]
CC(C)(O)CC[C@H](OC(=O)c1ccccc1)[C@](C)(O)[C@H]1CC[C@@]2(O)C3=CC(=O)[C@@H]4C[C@@H](O)[C@H](O)C[C@]4(C)C3CC[C@]12C (stereo partly drawn)	-13.9	–	29.1 µM [rising, partial curve]
Cc1ccc(NC(=O)CCNS(=O)(=O)c2ccc3c(c2)CCC(=O)N3)c(Br)c1	1.73	–	29.1 µM [rising, single point]
COc1ccc(C(=O)NCC(=O)N2CCCC(C)C2)cc1OC (stereo not drawn)	2.98	0.651 µM [falling, single point]	–
CCc1cccc2c(C(=O)COC(=O)/C=C/c3ccc(O)c(OC)c3)c[nH]c12	-42.2	29.1 µM [falling, single point]	29.1 µM [falling, single point]
O=C1CN(C(=O)CC2c3ccccc3-c3ccccc32)CC(=O)N1	-29.2	–	29.1 µM [falling, single point]
Brc1ccc(Oc2ncc(CN3CCN(c4ccccc4)CC3)s2)cc1	–	1.64 µM [rising, partial curve, poor fit]	–
COc1ccc(/C=N/NC2=NS(=O)(=O)c3ccccc32)cc1OC(C)=O	–	6.51 µM [rising, partial curve, poor fit]	–
Cc1c(C(=O)OCCOc2ccccc2)[nH]c2c1C(=O)CCC2	-78.4	0.82 µM [falling, full curve, poor fit]	23.1 µM [falling, partial curve, poor fit]
COc1ccc(N2CCN(c3cc(C)c4ccccc4n3)CC2)cc1	-7.87	3.66 µM [rising, single point]	6.51 µM [rising, single point]
COc1ccc(CCNC(=O)C2CCN(S(=O)(=O)c3ccc(OC)cc3)CC2)cc1	-17.6	–	4.11 µM [rising, full curve]
COc1ccc(C(=O)Nc2sc(C)c(C)c2CN2CCOCC2)cc1	-0.544	–	32.6 µM [falling, single point]
C=CCn1cc(C(=O)OC)c(=O)c2cc(S(=O)(=O)N3CCC(C)CC3)ccc21	7.22	2.06 µM [rising, single point]	–
CCOc1ccc(N2C(=O)c3cccnc3C2Nc2ccc(C)c(C)c2)cc1 (stereo not drawn)	8.11	–	–
O=C1C2CC=C(Cl)CC2C(=O)N1CN(Cc1ccco1)CN1C(=O)C2CC=C(Cl)CC2C1=O (stereo not drawn)	-38.8	29.1 µM [falling, single point]	0.0651 µM [falling, full curve]
O=C(COc1ccc(Cl)cc1)Nc1ccccc1C(=O)NCc1ccco1	-64.4	20.6 µM [falling, single point]	2.06 µM [rising, partial curve]
